The other results are listed elsewhere or left out.
Assays:
Test in all cases: log2 fold change, soluble protein after heating vs DMSO (PISA); higher = thermal stabilisation; K562 lysate, 10 uM; active = over 0.2 and 3.5 SD of the protein, either way, in both replicates (recomputed)
[1] = compound: C=CC(=O)N1CCC[C@@H](n2nc(-c3ccc(Oc4ccccc4)cc3)c3c(N)ncnc32)C1 [ibrutinib]
Procedure, shortened: (§1)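 To prepare the extract, K562 pellets were dounce-homogenised in PBS pH 7.4 with 1 mM MgCl2, giving crude material at 1 mg/mL protein. This was treated with 10 μM compound for 30 min, then heated in aliquots for 3 min over 48°C-58°C before pooling and addition of NP-40 to 0.5% at 4°C. Centrifugation at 21,000xg for 90 min left soluble protein in the supernatant, which TMTpro 16plex LC-MS/MS quantified with equalised channel sums. Results are log-two fold changes in thermal stability compared with solvent controls, from duplicates.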

The chains behind the UniProt entries cited, without tags or fusion partners. Where a name states a change or a piece, a line headed by the entry shows the natural chain unless it says otherwise.
UniProt Q5JPH6: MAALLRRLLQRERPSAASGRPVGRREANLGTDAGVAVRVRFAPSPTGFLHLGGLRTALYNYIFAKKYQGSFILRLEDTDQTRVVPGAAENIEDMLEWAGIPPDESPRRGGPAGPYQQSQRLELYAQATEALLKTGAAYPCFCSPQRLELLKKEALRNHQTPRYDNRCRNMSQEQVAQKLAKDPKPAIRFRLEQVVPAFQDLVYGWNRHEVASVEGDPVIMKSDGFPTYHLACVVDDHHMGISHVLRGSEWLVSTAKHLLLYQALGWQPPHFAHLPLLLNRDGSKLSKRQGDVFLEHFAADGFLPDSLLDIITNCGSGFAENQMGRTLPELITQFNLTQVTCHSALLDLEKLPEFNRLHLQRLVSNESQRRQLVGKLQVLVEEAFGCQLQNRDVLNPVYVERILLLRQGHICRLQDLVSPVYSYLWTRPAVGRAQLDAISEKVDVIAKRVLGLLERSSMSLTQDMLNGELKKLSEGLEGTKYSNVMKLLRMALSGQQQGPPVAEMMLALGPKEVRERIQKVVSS
UniProt Q96DC8: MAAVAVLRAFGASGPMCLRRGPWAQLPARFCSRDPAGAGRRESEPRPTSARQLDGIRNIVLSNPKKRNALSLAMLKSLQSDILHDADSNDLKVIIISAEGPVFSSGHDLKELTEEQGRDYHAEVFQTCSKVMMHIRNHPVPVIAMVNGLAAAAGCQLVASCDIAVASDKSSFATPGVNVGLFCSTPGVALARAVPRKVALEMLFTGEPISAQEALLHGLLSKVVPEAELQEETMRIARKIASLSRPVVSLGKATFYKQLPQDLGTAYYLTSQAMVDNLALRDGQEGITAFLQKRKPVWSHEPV
UniProt Q9GZT9: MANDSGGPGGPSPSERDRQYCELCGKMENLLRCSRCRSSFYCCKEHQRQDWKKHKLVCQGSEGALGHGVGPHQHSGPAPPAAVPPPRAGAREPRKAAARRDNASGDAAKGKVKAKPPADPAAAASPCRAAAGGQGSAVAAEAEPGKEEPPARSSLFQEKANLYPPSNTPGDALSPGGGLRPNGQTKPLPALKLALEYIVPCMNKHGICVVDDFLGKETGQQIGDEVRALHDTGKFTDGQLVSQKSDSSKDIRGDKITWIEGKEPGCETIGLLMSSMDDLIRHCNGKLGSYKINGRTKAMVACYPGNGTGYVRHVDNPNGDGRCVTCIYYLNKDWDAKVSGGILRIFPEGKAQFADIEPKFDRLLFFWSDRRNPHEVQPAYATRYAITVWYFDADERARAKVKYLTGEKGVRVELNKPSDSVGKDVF
UniProt P0DPD7: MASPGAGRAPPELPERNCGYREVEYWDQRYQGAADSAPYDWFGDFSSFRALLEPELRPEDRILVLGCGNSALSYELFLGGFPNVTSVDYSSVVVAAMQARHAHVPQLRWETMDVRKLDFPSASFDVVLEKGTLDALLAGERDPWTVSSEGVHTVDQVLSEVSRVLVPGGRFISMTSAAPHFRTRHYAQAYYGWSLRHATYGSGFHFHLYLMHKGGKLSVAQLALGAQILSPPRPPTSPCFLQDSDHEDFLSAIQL
UniProt O60869: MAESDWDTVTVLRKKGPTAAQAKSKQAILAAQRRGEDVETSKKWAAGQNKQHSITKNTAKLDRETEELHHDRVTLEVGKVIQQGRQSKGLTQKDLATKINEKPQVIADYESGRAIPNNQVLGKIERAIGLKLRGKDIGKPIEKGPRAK
UniProt Q9NP97, whole entry, looked up: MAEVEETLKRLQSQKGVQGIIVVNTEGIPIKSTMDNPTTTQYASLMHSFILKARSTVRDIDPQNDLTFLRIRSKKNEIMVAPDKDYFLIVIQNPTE
UniProt Q9NRR4: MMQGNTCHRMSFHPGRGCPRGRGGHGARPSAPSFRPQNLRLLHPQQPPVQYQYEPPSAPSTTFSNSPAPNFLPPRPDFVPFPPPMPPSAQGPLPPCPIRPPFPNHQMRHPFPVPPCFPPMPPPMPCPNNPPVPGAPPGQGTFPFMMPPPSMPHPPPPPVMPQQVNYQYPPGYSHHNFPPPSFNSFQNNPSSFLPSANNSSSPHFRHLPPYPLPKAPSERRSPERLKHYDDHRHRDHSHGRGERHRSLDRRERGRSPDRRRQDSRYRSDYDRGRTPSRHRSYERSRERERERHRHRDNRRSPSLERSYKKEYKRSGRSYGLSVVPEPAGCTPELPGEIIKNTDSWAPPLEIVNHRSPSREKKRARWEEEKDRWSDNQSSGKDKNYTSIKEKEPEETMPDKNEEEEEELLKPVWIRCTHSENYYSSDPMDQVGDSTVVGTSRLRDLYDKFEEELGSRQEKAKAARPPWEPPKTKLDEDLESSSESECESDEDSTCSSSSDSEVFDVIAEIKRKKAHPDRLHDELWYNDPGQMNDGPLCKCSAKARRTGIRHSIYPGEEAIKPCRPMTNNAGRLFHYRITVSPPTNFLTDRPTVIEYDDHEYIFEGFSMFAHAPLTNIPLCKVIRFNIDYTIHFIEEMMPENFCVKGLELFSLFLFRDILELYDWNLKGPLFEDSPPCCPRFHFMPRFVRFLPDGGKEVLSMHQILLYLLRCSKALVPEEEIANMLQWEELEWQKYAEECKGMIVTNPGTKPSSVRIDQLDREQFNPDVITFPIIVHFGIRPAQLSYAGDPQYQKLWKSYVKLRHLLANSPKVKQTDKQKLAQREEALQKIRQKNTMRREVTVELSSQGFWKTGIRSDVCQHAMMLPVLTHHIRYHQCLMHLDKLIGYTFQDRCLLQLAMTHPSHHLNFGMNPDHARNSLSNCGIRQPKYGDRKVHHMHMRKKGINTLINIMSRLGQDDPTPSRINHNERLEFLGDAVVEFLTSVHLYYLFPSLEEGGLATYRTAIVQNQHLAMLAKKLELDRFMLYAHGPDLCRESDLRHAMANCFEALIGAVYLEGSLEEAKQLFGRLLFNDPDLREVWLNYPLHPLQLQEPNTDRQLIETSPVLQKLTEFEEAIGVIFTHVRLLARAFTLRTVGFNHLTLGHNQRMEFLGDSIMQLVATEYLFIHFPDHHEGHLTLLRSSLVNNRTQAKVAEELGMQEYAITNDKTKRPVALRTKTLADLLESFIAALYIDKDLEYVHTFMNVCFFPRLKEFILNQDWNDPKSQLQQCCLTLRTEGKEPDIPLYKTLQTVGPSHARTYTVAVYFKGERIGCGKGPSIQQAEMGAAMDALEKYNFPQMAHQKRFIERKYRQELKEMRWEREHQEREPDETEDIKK
UniProt P41567, whole entry, looked up: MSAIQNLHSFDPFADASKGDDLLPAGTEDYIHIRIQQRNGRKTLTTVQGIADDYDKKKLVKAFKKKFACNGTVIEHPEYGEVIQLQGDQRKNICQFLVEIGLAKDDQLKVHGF
UniProt Q14195, whole entry, looked up: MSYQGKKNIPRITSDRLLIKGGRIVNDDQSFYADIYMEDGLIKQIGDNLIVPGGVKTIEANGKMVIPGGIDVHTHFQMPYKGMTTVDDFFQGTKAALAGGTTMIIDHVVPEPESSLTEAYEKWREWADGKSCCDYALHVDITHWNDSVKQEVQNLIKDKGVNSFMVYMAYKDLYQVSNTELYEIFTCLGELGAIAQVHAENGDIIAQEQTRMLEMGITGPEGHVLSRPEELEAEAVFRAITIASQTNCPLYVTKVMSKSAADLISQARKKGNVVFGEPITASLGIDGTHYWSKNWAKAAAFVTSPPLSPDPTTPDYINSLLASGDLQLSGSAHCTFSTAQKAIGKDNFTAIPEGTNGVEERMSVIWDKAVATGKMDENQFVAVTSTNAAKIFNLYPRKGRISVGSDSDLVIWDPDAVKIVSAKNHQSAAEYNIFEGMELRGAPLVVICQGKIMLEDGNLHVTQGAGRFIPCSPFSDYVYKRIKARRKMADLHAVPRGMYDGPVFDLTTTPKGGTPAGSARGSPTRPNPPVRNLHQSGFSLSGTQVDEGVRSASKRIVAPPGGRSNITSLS
UniProt O95147: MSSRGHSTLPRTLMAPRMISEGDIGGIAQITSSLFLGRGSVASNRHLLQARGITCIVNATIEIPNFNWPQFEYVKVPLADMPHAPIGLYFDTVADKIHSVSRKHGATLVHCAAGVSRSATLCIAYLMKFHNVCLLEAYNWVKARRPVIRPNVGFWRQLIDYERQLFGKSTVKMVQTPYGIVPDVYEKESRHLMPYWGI
UniProt Q8TCX1: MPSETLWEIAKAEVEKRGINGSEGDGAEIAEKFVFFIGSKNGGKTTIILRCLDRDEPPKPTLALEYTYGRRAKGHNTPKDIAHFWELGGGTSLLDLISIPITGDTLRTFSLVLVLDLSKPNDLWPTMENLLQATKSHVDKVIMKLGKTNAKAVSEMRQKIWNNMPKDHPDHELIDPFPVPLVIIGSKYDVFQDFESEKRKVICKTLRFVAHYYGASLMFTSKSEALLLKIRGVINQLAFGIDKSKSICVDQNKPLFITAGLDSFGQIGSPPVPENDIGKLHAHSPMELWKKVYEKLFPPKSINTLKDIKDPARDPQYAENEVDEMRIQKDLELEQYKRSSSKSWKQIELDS
UniProt Q9C005, whole entry, looked up: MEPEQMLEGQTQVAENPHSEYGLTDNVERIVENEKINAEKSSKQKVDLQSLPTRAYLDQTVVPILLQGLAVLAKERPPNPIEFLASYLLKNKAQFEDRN
UniProt Q6ZPD9: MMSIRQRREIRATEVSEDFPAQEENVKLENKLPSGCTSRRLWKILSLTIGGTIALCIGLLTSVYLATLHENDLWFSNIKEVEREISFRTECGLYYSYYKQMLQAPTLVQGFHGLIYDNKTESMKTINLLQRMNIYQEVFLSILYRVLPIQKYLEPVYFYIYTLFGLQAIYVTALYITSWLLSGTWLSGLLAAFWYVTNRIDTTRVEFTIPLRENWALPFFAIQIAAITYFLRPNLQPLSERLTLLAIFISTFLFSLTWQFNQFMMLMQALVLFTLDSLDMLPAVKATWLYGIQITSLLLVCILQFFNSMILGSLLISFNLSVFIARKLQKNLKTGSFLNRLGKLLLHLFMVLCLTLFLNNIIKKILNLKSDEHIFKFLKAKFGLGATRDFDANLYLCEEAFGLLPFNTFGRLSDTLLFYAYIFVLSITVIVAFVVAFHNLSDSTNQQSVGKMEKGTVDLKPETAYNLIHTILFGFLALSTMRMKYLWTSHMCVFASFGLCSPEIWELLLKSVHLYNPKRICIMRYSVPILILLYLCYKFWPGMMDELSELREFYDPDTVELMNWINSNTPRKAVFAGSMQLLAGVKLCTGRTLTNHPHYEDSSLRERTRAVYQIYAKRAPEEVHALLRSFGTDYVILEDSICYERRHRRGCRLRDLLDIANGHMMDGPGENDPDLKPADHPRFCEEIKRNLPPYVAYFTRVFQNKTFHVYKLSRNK
UniProt Q5VUJ9: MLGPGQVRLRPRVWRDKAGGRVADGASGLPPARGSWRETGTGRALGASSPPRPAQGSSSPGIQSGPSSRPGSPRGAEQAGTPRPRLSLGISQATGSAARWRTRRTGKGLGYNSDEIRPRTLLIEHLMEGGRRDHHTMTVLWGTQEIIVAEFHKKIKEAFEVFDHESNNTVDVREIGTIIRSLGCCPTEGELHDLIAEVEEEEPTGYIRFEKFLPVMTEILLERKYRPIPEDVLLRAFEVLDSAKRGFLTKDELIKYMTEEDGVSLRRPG
UniProt Q96G04: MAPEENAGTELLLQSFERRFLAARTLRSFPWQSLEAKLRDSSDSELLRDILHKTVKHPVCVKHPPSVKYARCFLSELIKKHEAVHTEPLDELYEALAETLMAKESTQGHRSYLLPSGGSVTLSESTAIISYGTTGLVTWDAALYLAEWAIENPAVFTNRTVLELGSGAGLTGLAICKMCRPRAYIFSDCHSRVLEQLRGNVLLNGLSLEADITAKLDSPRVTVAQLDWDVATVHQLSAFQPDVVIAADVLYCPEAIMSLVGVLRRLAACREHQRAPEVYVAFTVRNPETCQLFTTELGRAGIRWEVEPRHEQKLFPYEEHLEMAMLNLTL
UniProt Q92997: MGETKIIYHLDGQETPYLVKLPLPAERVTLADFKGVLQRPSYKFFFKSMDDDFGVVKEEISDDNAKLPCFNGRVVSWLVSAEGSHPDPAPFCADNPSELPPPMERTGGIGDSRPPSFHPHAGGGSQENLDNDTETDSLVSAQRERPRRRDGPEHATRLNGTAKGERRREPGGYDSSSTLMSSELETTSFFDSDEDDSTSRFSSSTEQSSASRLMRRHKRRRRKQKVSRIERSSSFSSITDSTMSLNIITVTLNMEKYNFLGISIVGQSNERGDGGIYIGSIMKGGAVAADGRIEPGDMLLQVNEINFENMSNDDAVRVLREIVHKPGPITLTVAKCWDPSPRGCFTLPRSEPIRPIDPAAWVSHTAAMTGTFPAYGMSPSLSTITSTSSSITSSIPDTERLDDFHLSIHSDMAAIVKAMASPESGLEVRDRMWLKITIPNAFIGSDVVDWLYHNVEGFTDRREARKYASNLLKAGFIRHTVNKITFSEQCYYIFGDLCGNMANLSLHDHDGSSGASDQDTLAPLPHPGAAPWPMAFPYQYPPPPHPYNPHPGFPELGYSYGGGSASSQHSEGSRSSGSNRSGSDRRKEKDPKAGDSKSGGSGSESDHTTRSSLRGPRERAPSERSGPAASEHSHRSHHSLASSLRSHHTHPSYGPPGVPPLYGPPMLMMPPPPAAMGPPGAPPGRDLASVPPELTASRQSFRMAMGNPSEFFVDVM

[2] = compound: CC(=O)c1cnc2ccc(-c3cc(Cl)c(O)c(Cl)c3)nc2c1N[C@H]1CC[C@H](CN(C)C)CC1
Procedure, shortened: as §1

[3] = compound: CC(C)(C)Cn1c(N)nc2ccc(-c3[nH]c(C(C)(C)C)nc3-c3ccc(F)cc3)nc21 [ralimetinib]
Procedure, shortened: as §1

[4] = compound: CC(C)(O)CC(=O)NCCn1ccc2ncnc(Nc3ccc(Oc4cccc(C(F)(F)F)c4)c(Cl)c3)c21
Procedure, shortened: as §1

[5] = compound: CC(C)C1=C2N=C(C=C(N2N=C1)NCC3=CC=CC=C3)NCCCCCCN
Procedure, shortened: as §1

[6] = compound: CC1=C(C(CC(=O)N1)C2=CC=C(C=C2)C(F)(F)F)C(=O)NC3=C(C=C4C(=C3)C=NN4)F
Procedure, shortened: as §1

[7] = compound: CC1=C(C2=C(C=C1)C(=O)C3=CC=CC=C3N2CCCN)C
Procedure, shortened: as §1

[8] = compound: CC1=C(C=C(C=C1)NC(=O)C2=CC(=CC=C2)C(C)(C)C#N)NC3=CC4=C(C=C3)N=CN(C4=O)C
Procedure, shortened: as §1

[9] = compound: CC1=C(C=C(C=C1)NC(=O)C2=CC(=CC=C2)N(C)C)NC(=O)C3=CC=C(C=C3)O
Procedure, shortened: as §1

[10] = compound: CC1=CC=C(C=C1)SC2=C3C=C(SC3=CN=C2)C(=O)N
Procedure, shortened: as §1

Measured: log2 fold change

EARS2 (UniProt Q5JPH6)
inactive: [1] -0.025 | [2] 0.009 | [3] 0.006 | [4] 0.016 | [5] -0.02 | [6] 0.003 | [7] -0.071 | [8] 0.009 | [9] 0 | [10] -0.034

DPH1 (UniProt Q9BZG8)
inactive: [1] 0.014 | [2] 0.011 | [3] -0.003 | [4] -0.009 | [5] -0.02 | [6] -0.035 | [7] -0.002 | [8] 0.029 | [9] -0.015 | [10] -0.015

ECHDC3 (UniProt Q96DC8)
inactive: [1] -0.01 | [2] -0.023 | [3] -0.08 | [4] -0.029 | [5] -0.014 | [6] 0.05 | [7] -0.029 | [8] 0.007 | [9] -0.006 | [10] -0.01

EHD2 (UniProt Q9NZN4)
inactive: [1] -0.004 | [2] 0.035 | [3] 0.054 | [4] -0.027 | [5] -0.005 | [6] 0.066 | [7] 0.063 | [8] 0.019 | [9] 0.059 | [10] 0.017

EFR3A (UniProt Q14156)
inactive: [1] 0.146 | [2] 0.117 | [3] -0.007 | [4] -0.021 | [5] 0.003 | [6] -0.109 | [7] 0.025 | [9] -0.03 | [10] 0.016

DUSP19 (UniProt Q8WTR2)
inactive: [1] -0.051 | [2] 0.107 | [3] -0.008 | [4] -0.128 | [5] 0.069 | [6] 0.112 | [8] 0.035 | [9] 0.024 | [10] -0.219

DXO (UniProt O77932)
inactive: [1] -0.018 | [2] 0.057 | [3] 0.137 | [4] -0.038 | [5] -0.038 | [6] 0.005 | [7] -0.015 | [8] 0.029 | [9] -0.015 | [10] -0.003

DUSP22 isoform 2 (UniProt Q9NRW4)
inactive: [1] -0.059 | [2] 0.043 | [3] 0.007 | [4] 0.02 | [5] -0.092 | [6] 0.177 | [7] -0.046 | [9] 0.081 | [10] 0.007

DUSP9 (UniProt Q99956)
inactive: [1] 0 | [2] 0.049 | [3] 0.033 | [4] 0.094 | [5] 0.134 | [6] 0.047 | [7] -0.007 | [8] -0.001 | [9] 0.04 | [10] 0.088

DPYSL2 (UniProt Q16555)
inactive: [1] 0.046 | [2] 0.011 | [3] 0.036 | [4] -0.024 | [5] 0.036 | [6] 0.013 | [7] 0.02 | [8] 0.019 | [9] 0.029 | [10] -0.002

DRG2 (UniProt P55039)
inactive: [1] 0.008 | [2] -0.02 | [3] 0.006 | [4] -0.024 | [5] 0.037 | [6] -0.02 | [7] -0.035 | [8] 0.009 | [9] 0.006 | [10] -0.003

EGLN1 (UniProt Q9GZT9)
inactive: [1] -0.041 | [2] 0.007 | [3] 0.01 | [4] 0.072 | [5] 0.029 | [6] 0.013 | [7] -0.029 | [8] 0.013 | [9] 0.029 | [10] 0.038

EEF1AKMT4 (UniProt P0DPD7)
inactive: [1] 0.023 | [2] -0.012 | [3] -0.003 | [4] -0.053 | [5] 0.003 | [6] -0.006 | [7] -0.055 | [8] -0.029 | [9] -0.029 | [10] 0.069

EED, A0A5F9ZI63
inactive: [1] -0.026 | [2] -0.018 | [3] 0.008 | [4] -0.039 | [5] -0.004 | [6] 0.036 | [7] -0.003 | [8] -0.016 | [9] 0.042 | [10] -0.008

EDF1 (UniProt O60869)
inactive: [1] 0.008 | [2] -0.005 | [3] -0.06 | [4] -0.031 | [5] 0.051 | [6] -0.021 | [7] -0.103 | [8] -0.014 | [9] -0.076 | [10] -0.009

DYNC2H1 isoform 2 (UniProt Q8NCM8)
inactive: [1] 0.116 | [2] -0.05 | [3] 0.019 | [4] -0.065 | [5] -0.02 | [6] -0.03 | [7] -0.078 | [9] 0.059 | [10] -0.03

DTNBP1 (UniProt Q96EV8)
inactive: [1] 0.028 | [2] 0.007 | [3] -0.013 | [4] -0.002 | [5] 0 | [6] 0.009 | [7] 0.011 | [8] -0.006 | [9] 0.003 | [10] -0.005

ECI1 (UniProt P42126)
inactive: [1] 0.04 | [2] 0.019 | [3] 0.033 | [4] 0.023 | [5] -0.015 | [6] -0.017 | [7] -0.006 | [8] -0.002 | [9] -0.037 | [10] 0.001

EBP (UniProt Q15125)
inactive: [1] -0.023 | [2] 0.002 | [3] 0.004 | [4] -0.022 | [5] 0.02 | [6] 0.01 | [7] -0.025 | [8] -0.016 | [9] -0.152 | [10] 0.005

DYNLRB1 (UniProt Q9NP97)
inactive: [1] 0.02 | [2] -0.026 | [3] -0.039 | [4] -0.031 | [5] -0.002 | [6] -0.041 | [7] 0.016 | [8] 0.074 | [9] 0.009 | [10] 0.002

DROSHA (UniProt Q9NRR4)
inactive: [1] -0.079 | [2] 0.036 | [3] -0.017 | [4] -0.002 | [5] 0.073 | [6] 0 | [7] -0.035 | [8] -0.143 | [9] 0.107 | [10] 0.017

EIF1 (UniProt P41567)
inactive: [1] 0.026 | [2] 0.015 | [3] -0.016 | [4] 0.011 | [5] 0 | [6] -0.114 | [7] 0.059 | [8] 0.045 | [9] -0.043 | [10] -0.037

DPYSL3 isoform 2 (UniProt Q14195)
inactive: [8] 0.018

EFCAB7 (UniProt A8K855)
inactive: [3] -0.237 | [4] -0.059 | [9] 0.129

DUSP14 (UniProt O95147)
inactive: [2] -0.046 | [5] 0.158 | [7] -0.065 | [10] -0.056

DYNC2LI1 (UniProt Q8TCX1)
inactive: [1] 0.069 | [3] -0.03 | [4] -0.022 | [6] 0.002 | [7] -0.068 | [8] 0.03 | [9] 0.03

DYRK1A isoform 2 (UniProt Q13627)
inactive: [1] -0.063 | [3] 0.085 | [4] -0.241 | [5] 0.005 | [8] 0.004 | [9] -0.081

EFCAB3 (UniProt Q8N7B9)
inactive: [2] 0.067 | [5] -0.154 | [8] -0.066 | [10] 0.072

DPY30 (UniProt Q9C005)
inactive: [2] -0.08 | [3] 0.001 | [4] 0.058 | [5] -0.065 | [6] -0.089 | [7] -0.036 | [8] 0.063 | [9] 0.067 | [10] 0.084

DTX3L (UniProt Q8TDB6)
inactive: [1] 0.087 | [3] 0 | [4] -0.065 | [5] 0.043 | [7] 0.049 | [8] 0.015 | [9] 0.155

ECM1 isoform 2 (UniProt Q16610)
inactive: [3] -0.244 | [4] 0.891 | [9] -0.129

DPY19L3 (UniProt Q6ZPD9)
inactive: [1] -0.111 | [2] 0.012 | [5] -0.224 | [8] 0.047 | [10] -0.017

DUT (UniProt H0YMP1)
inactive: [1] 0.306 | [2] -0.071 | [10] 0.181

EFCAB2 isoform 2 (UniProt Q5VUJ9)
inactive: [3] -0.004 | [4] 0.047 | [5] 0.009 | [6] 0.057 | [8] -0.057 | [9] -0.021

DSC2 (UniProt Q02487)
inactive: [1] 0.065 | [3] -0.039 | [4] -0.185 | [5] -0.059 | [7] 0.081 | [8] -0.082 | [9] -0.068

EEF2KMT (UniProt Q96G04)
inactive: [3] -0.029 | [4] 0.057 | [5] 0.064 | [6] -0.054 | [7] -0.15 | [8] -0.082 | [9] -0.085

DVL3 (UniProt Q92997)
inactive: [1] -0.02 | [2] 0.116 | [3] 0.006 | [4] 0.03 | [5] 0.042 | [6] -0.003 | [8] -0.078 | [9] 0.059 | [10] 0.084

Looked up one by one from the entries so far (3):
EFCAB2 isoform 2 (UniProt Q5VUJ9)
inactive: [3] -0.004 | [4] 0.047 | [5] 0.009 | [6] 0.057 | [8] -0.057 | [9] -0.021

DPY19L3 (UniProt Q6ZPD9)
inactive: [1] -0.111 | [2] 0.012 | [5] -0.224 | [8] 0.047 | [10] -0.017

ECM1 isoform 2 (UniProt Q16610)
inactive: [3] -0.244 | [4] 0.891 | [9] -0.129

From the supplement of paper PMC10849652
